From article PMC5260985
No constants are given. Whether binding was seen depends on the method and setting. Binding seen in cells or lysates may run through a third protein. Some entries that bind do so weakly or less than the wild type.

By UniProt entry, the sequences of proteins in these tests, tags left out. Where a name states a change or a piece, a line headed by the entry shows the natural chain unless it says otherwise.
UniProt P42229: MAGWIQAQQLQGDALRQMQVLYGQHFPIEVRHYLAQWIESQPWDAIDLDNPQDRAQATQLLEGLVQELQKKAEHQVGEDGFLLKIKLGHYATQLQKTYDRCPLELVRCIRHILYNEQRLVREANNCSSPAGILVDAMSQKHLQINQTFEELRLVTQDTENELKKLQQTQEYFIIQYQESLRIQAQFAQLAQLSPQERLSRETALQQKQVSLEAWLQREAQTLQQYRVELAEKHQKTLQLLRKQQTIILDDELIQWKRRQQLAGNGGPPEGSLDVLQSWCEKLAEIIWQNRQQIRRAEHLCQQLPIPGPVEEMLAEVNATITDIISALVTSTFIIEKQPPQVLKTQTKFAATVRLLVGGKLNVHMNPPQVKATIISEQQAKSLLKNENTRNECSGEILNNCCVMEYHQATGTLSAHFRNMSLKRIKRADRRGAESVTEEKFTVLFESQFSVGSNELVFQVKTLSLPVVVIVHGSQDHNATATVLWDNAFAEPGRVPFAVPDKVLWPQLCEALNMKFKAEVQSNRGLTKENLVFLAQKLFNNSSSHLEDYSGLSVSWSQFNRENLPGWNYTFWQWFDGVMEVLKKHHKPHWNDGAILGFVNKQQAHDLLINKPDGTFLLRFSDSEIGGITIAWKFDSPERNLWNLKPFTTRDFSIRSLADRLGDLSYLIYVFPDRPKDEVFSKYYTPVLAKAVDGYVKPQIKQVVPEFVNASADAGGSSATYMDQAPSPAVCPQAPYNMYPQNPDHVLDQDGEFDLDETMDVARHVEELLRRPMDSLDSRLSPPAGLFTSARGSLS
UniProt P06748: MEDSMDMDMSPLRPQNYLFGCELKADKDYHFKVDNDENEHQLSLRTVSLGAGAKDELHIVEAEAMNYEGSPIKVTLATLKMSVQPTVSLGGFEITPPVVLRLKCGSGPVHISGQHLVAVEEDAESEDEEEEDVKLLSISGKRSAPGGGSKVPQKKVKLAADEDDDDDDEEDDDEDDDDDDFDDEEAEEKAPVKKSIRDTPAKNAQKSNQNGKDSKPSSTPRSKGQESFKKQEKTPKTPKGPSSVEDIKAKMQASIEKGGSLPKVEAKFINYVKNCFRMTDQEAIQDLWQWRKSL

Legend:
[1] = target: RFP-tagged STAT5A Y694F mutant (RFP-STAT5AY694F) (UniProt P42229); experiment: co-IP; HEK 293T cells transfected with RFP-tagged wtSTAT5A or STAT5AY694F; RIPA lysate with 2 mg total protein precipitated overnight at 4 °C with mouse monoclonal anti-P-STAT5 (1:100) or rabbit monoclonal anti-T-STAT5 (1:50), protein G sepharose; endogenous NPM1 detected with mouse monoclonal anti-NPM1; IgG controls
[2] = target: RFP-tagged wild-type STAT5A (RFP-wtSTAT5A) (UniProt P42229); experiment: as above

binding [1]: binds
binding [2]: binds
Substance: Nucleophosmin (NPM1), endogenous in HEK 293T cells (from UniProt P06748 1-294)
